Data from patent US8389482B2, “Short peptides useful for treatment of ischemia/reperfusion injury and other tissue damage conditions associated with nitric oxide and its reactive species” (New York University, priority 2007, dated 2013).
Where two headings read alike, the source gives them in different places. Some entries share one result that the patent states for a list of compounds. Residues, ends and D or L forms follow the SMILES beside them.

Tested on: HeLa cells
Type: cell-based
Conditions: 40 minutes, after NO/ONOO- exposure
Experimental: The ability of the L-CEFH peptide (Cys-Glu-Phe-His; SEQ ID NO: 1) to reduce cell death caused by nitric oxide (NO) and peroxynitrite (ONOO^−) was tested in cell culture. Following treatment with NO/ONOO^−, HeLa cells were incubated with either a control buffer, 5 mM cysteine, or 20 μM L-CEFH peptide for 40 minutes. The percentage of cells surviving was determined by a MTS-based assay (available from Promega, Madison, Wis.).

SMILES	improvement of HeLa cell survival vs "no treatment" control (20 μM)	improvement of HeLa cell survival vs "no treatment" control (5 mM)
N[C@@H](CS)C(=O)N[C@@H](CCC(=O)O)C(=O)N[C@@H](Cc1ccccc1)C(=O)N[C@@H](Cc1c[nH]cn1)C(=O)O [L-CEFH, Cys-Glu-Phe-His] (H-CEFH-OH; N-terminus and C-terminus assumed)	60-80%	–
N[C@@H](CS)C(=O)O [cysteine, reference compound]	–	60-80%
